Article PMC10722681, “RGCC-mediated PLK1 activity drives breast cancer lung metastasis by phosphorylating AMPKα2 to activate oxidative phosphorylation and fatty acid oxidation” (Journal of Experimental & Clinical Cancer Research : CR, 2023)

Protein sequences, listed by entry. Tags and fused reporters are not part of them.
UniProt P53350: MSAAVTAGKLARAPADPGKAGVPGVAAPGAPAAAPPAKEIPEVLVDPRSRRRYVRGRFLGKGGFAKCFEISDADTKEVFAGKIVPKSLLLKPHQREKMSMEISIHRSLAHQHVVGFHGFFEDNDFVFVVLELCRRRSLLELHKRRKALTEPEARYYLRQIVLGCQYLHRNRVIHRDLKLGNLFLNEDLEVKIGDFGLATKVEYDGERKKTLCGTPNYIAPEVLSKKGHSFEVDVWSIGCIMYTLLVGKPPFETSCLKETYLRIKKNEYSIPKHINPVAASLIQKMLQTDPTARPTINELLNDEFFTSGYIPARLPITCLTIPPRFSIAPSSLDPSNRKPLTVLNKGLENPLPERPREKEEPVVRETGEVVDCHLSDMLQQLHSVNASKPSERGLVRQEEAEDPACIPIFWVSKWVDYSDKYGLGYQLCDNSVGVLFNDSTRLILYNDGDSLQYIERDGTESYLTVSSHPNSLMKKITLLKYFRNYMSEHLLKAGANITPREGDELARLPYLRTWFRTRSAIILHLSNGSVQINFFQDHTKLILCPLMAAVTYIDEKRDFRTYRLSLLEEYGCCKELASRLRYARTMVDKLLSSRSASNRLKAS

Molecular target: T1, Response gene to complement 32 protein (RGCC) (human (endogenous in MDA-MB-231/LM3)) (UniProt Q9H4X1)
T1 sequence: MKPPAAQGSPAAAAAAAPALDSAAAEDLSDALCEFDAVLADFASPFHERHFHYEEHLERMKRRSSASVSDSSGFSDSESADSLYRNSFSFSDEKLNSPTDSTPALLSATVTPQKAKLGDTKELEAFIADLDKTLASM
Test: affinity purification with mass spectrometry; MDA-MB-231/LM3 cells immunoprecipitated with anti-RGCC agarose beads; digest analysed by LC-MS/MS (Triple TOF 5600+)

Substance: PLK1 (from UniProt P53350 1-603)
- binding: binds

These are yes or no findings as the source states them, for the method shown. In cells and extracts the contact can be indirect. These calls come from enrichment with a bait or labelling near it, and not all partners need be listed.
